Results reported in PubChem BioAssay AID248 (DTP/NCI, 2004).
The list does not hold the whole screen: it gathers tests that were run many times, whatever their T/C, doses with no T/C, and many T/C values between a quarter and a half above the control. Further doses and runs are listed elsewhere. T/C is the treated group as % of the vehicle group. Some doses have a count of surviving animals in place of a T/C: the source holds a T/C of zero for them, seemingly a mark for toxic or unscored doses. Some doses without a T/C left all or most animals alive at the check, yet need not have been tolerated: survival well below the control is almost never listed, so the zero probably covers shortened survival too. Survivors were counted at the toxicity check, usually on the fifth day, unless a day is given; later deaths do not show. Schedules are NCI's codes, read here as Q, the interval in days (D) or hours (H), X, the number of doses. Some schedule codes hold Z or #, which are not explained here. Some structures stand for samples that the source files as different forms (salt, stereo form or complex); doses refer to the form tested. Some entries were tested several times; the results are listed from low to high. Where survival is the endpoint, the PubChem record calls one and a half times the control and up active, and a quarter to a half above the control has no call in these data; cut-offs in other NCI protocols can differ. Brackets with × give the number of equal values in this list. Some T/C values carry the count of animals alive at the toxicity check (mostly the fifth day); where none is given, no animal had died by that day.

Test system: L1210 leukemia ip in BDF1 mice, survival T/C
Experiment: NCI In Vivo Anticancer Drug Screen. Data for tumor model L1210 Leukemia (intraperitoneal) in B6D2F1 (BDF1) mice
Conditions: T/C endpoint: mean survival time, higher T/C = longer survival
[1] = dose: 64.0 mg/kg/injection, schedule: Q01DX009 (ip), vehicle: water
[2] = dose: 150.0 mg/kg/injection, schedule: Q01DX001 (ip), vehicle: other

Structure (SMILES): Cc1c2ccncc2c(C)c2c1[nH]c1ccccc12
- T/C [1]: 127 % of control
- survivor count [1]: 9 of 10 and 10 of 10
- survivor count (dose: 64.0 mg/kg/injection, schedule: Q04DX003 (ip), vehicle: acid diluted with saline): 0 of 10
- T/C (dose: 64.0 mg/kg/injection, schedule: Q04DX003 (ip), vehicle: clinical formulation): 131 % of control
- T/C (dose: 64.0 mg/kg/injection, schedule: Q08DX002 (oral), vehicle: clinical formulation): 127 % of control
- T/C (dose: 64.0 mg/kg/injection, schedule: Q## X003 (ip), vehicle: other): 144 % of control
- T/C (dose: 75.0 mg/kg/injection, schedule: Q01DX001 (ip), vehicle: Klucel (hydroxypropylcellulose) (HPC)): 138 % of control
- T/C (dose: 75.0 mg/kg/injection, schedule: Q01DX001 (ip), vehicle: other): 128 [6 of 8 alive], 130, 151, 174 [9 of 10 alive], 177 % of control
- T/C (dose: 75.0 mg/kg/injection, schedule: Q01DX001 (ip), vehicle: saline with Tween-80): 127 % of control
- T/C (dose: 75.0 mg/kg/injection, schedule: Q01DX001 (ip), vehicle: saline, evaluated on day 60): 141 and 166 % of control
- T/C (dose: 75.0 mg/kg/injection, schedule: Q01DX001 (ip), vehicle: saline, run until all animals had died): 125 and 138 % of control
- T/C (dose: 75.0 mg/kg/injection, schedule: Q01DX001 (ip), vehicle: steroid suspending solution): 132 % of control
- T/C (dose: 75.0 mg/kg/injection, schedule: Q01DX001 (oral), vehicle: other, evaluated on day 40): 127 % of control
- T/C (dose: 75.0 mg/kg/injection, schedule: Q01DX001 (oral), vehicle: other, evaluated on day 60): 129 [8 of 10 alive], 130, 141 % of control
- T/C (dose: 75.0 mg/kg/injection, schedule: Q01DX001 (sc), vehicle: other): 130 and 133 % of control
- T/C (dose: 75.0 mg/kg/injection, schedule: Q01DX Z (oral), vehicle: carboxymethylcellulose (CMC)): 139 % of control
- survivor count (dose: 75.0 mg/kg/injection, schedule: Q03HX008 (ip), vehicle: steroid suspending solution): 7 of 8
- survivor count (dose: 75.0 mg/kg/injection, schedule: Q03HX016 (ip), vehicle: steroid suspending solution): 6 of 8
- T/C (dose: 75.0 mg/kg/injection, schedule: Q04DX003 (ip), vehicle: Klucel (hydroxypropylcellulose) (HPC), evaluated on day 5): 149 and 181 % of control
- T/C (dose: 75.0 mg/kg/injection, schedule: Q04DX003 (ip), vehicle: Klucel (hydroxypropylcellulose) (HPC), evaluated on day 30): 185 % of control
- T/C (dose: 75.0 mg/kg/injection, schedule: Q04DX003 (ip), vehicle: Klucel (hydroxypropylcellulose) (HPC), evaluated on day 60): 149, 159, 181, 198, 232 % of control
- T/C (dose: 75.0 mg/kg/injection, schedule: Q08DX002 (ip), vehicle: other): 147 % of control
- T/C (dose: 75.0 mg/kg/injection, schedule: Q## X003 (oral), vehicle: carboxymethylcellulose (CMC)): 145 % of control
- T/C (dose: 80.0 mg/kg/injection, schedule: Q01DX001 (ip), vehicle: acid diluted with saline): 128 % of control
- T/C (dose: 80.0 mg/kg/injection, schedule: Q01DX001 (ip), vehicle: other): 136 % of control
- T/C (dose: 80.0 mg/kg/injection, schedule: Q01DX009 (ip), vehicle: carboxymethylcellulose (CMC)): 130 % of control
- T/C (dose: 80.0 mg/kg/injection, schedule: Q01DX009 (ip), vehicle: other): 130 % of control
- survivor count (dose: 80.0 mg/kg/injection, schedule: Q04DX009 (ip), vehicle: Klucel (hydroxypropylcellulose) (HPC)): 6 of 6
- T/C (dose: 80.0 mg/kg/injection, schedule: Q## X008 (ip), vehicle: other): 135 % of control
- T/C (dose: 100.0 mg/kg/injection, schedule: Q01DX001 (ip), vehicle: saline): 147 % of control
- T/C (dose: 100.0 mg/kg/injection, schedule: Q01DX001 (oral), vehicle: saline with Tween-80): 131 and 135 % of control
- T/C (dose: 100.0 mg/kg/injection, schedule: Q01DX001 (oral), vehicle: water): 125 % of control
- survivor count (dose: 100.0 mg/kg/injection, schedule: Q01DX005 (oral), vehicle: water): 6 of 6
- survivor count (dose: 100.0 mg/kg/injection, schedule: Q01DX009 (ip), vehicle: citric acid): 8 of 10
- survivor count (dose: 100.0 mg/kg/injection, schedule: Q01DX009 (ip), vehicle: clinical formulation): 6 of 10
- T/C (dose: 100.0 mg/kg/injection, schedule: Q04DX002 (ip), vehicle: Klucel (hydroxypropylcellulose) (HPC)): 126 % of control
- survivor count (dose: 100.0 mg/kg/injection, schedule: Q04DX003 (ip), vehicle: citric acid): 10 of 10
- survivor count (dose: 100.0 mg/kg/injection, schedule: Q04DX003 (ip), vehicle: clinical formulation): 10 of 10
- T/C (dose: 100.0 mg/kg/injection, schedule: Q04DX003 (ip), vehicle: saline with Tween-80): 114, 153, 197, 221, 255 % of control
- T/C (dose: 100.0 mg/kg/injection, schedule: Q04DX003 (oral), vehicle: saline): 148 % of control
- T/C (dose: 115.0 mg/kg/injection, schedule: Q01DX001 (ip), vehicle: saline): 131 % of control
- T/C (dose: 115.0 mg/kg/injection, schedule: Q01DX Z (oral), vehicle: saline): 144 % of control
- T/C (dose: 120.0 mg/kg/injection, schedule: Q## X008 (oral), vehicle: carboxymethylcellulose (CMC)): 132 % of control
- T/C (dose: 120.0 mg/kg/injection, schedule: Q## X008 (oral), vehicle: other): 141 % of control
- T/C (dose: 124.0 mg/kg/injection, schedule: Q01DX001 (ip), vehicle: acetone): 145 % of control
- survivor count (dose: 128.0 mg/kg/injection, schedule: Q01DX001 (ip), vehicle: clinical formulation): 6 of 10
- T/C (dose: 128.0 mg/kg/injection, schedule: Q01DX001 (oral), vehicle: clinical formulation): 142 % of control
- T/C (dose: 128.0 mg/kg/injection, schedule: Q01DX001 (sc), vehicle: clinical formulation): 135 % of control
- survivor count (dose: 128.0 mg/kg/injection, schedule: Q01DX009 (ip), vehicle: other): 10 of 10
- survivor count (dose: 128.0 mg/kg/injection, schedule: Q01DX009 (ip), vehicle: saline): 9 of 9
- survivor count (dose: 128.0 mg/kg/injection, schedule: Q01DX009 (ip), vehicle: water): 4 of 10 and 10 of 10
- survivor count (dose: 128.0 mg/kg/injection, schedule: Q04DX003 (ip), vehicle: acid diluted with saline): 8 of 10
- survivor count (dose: 128.0 mg/kg/injection, schedule: Q04DX003 (ip), vehicle: clinical formulation): 8 of 10
- T/C (dose: 150.0 mg/kg/injection, schedule: Q01DX001 (ip), vehicle: Klucel (hydroxypropylcellulose) (HPC)): 142 % of control
- T/C [2]: 147 % of control
- survivor count [2]: 2 of 8, 3 of 10, 4 of 10, 7 of 10
- T/C (dose: 150.0 mg/kg/injection, schedule: Q01DX001 (ip), vehicle: saline with Tween-80): 136 % of control
- T/C (dose: 150.0 mg/kg/injection, schedule: Q01DX001 (ip), vehicle: steroid suspending solution): 129 % of control
- T/C (dose: 150.0 mg/kg/injection, schedule: Q01DX001 (oral), vehicle: Klucel (hydroxypropylcellulose) (HPC)): 133 % of control
- T/C (dose: 150.0 mg/kg/injection, schedule: Q01DX001 (oral), vehicle: carboxymethylcellulose (CMC)): 131 % of control
- T/C (dose: 150.0 mg/kg/injection, schedule: Q01DX001 (oral), vehicle: other, evaluated on day 40): 143 % of control
- T/C (dose: 150.0 mg/kg/injection, schedule: Q01DX001 (oral), vehicle: other, evaluated on day 60): 126, 126 [8 of 10 alive], 151 [9 of 10 alive], 163 % of control
- T/C (dose: 150.0 mg/kg/injection, schedule: Q01DX001 (oral), vehicle: saline): 131 % of control
- survivor count (dose: 150.0 mg/kg/injection, schedule: Q01DX009 (ip), vehicle: saline with Tween-80): 10 of 10
- survivor count (dose: 150.0 mg/kg/injection, schedule: Q01DX Z (oral), vehicle: carboxymethylcellulose (CMC)): 6 of 6
- T/C (dose: 150.0 mg/kg/injection, schedule: Q04DX003 (ip), vehicle: Klucel (hydroxypropylcellulose) (HPC), evaluated on day 5): 109 and 135 % of control
- T/C (dose: 150.0 mg/kg/injection, schedule: Q04DX003 (ip), vehicle: Klucel (hydroxypropylcellulose) (HPC), evaluated on day 30): 129 % of control
- T/C (dose: 150.0 mg/kg/injection, schedule: Q04DX003 (ip), vehicle: Klucel (hydroxypropylcellulose) (HPC), evaluated on day 60): 109, 113, 120, 135 % of control
- survivor count (dose: 150.0 mg/kg/injection, schedule: Q04DX003 (ip), vehicle: clinical formulation): 6 of 10
- survivor count (dose: 150.0 mg/kg/injection, schedule: Q04DX003 (ip), vehicle: lactic acid): 6 of 9
- survivor count (dose: 150.0 mg/kg/injection, schedule: Q04DX003 (ip), vehicle: saline): 10 of 10
- survivor count (dose: 150.0 mg/kg/injection, schedule: Q08DX002 (ip), vehicle: other): 1 of 8
- T/C (dose: 150.0 mg/kg/injection, schedule: Q## X002 (oral), vehicle: other): 147 % of control
- T/C (dose: 160.0 mg/kg/injection, schedule: Q01DX001 (ip), vehicle: other): 145 % of control
- survivor count (dose: 160.0 mg/kg/injection, schedule: Q#A X018 (ip), vehicle: other): 10 of 10
- survivor count (dose: 160.0 mg/kg/injection, schedule: Q#A X018 (oral), vehicle: other): 9 of 10
- T/C (dose: 170.0 mg/kg/injection, schedule: Q01DX001 (ip), vehicle: saline): 142 % of control
- survivor count (dose: 170.0 mg/kg/injection, schedule: Q01DX Z (oral), vehicle: saline): 6 of 6
- T/C (dose: 200.0 mg/kg/injection, schedule: Q01DX001 (oral), vehicle: saline with Tween-80): 128 and 144 % of control
- T/C (dose: 200.0 mg/kg/injection, schedule: Q01DX001 (oral), vehicle: water): 133 and 139 % of control
- survivor count (dose: 200.0 mg/kg/injection, schedule: Q01DX009 (ip), vehicle: citric acid): 0 of 10
- survivor count (dose: 200.0 mg/kg/injection, schedule: Q01DX009 (ip), vehicle: clinical formulation): 0 of 10
- T/C (dose: 200.0 mg/kg/injection, schedule: Q04DX002 (ip), vehicle: Klucel (hydroxypropylcellulose) (HPC)): 129 % of control
- survivor count (dose: 200.0 mg/kg/injection, schedule: Q04DX003 (ip), vehicle: clinical formulation): 2 of 10
- T/C (dose: 200.0 mg/kg/injection, schedule: Q04DX003 (ip), vehicle: saline with Tween-80): 93, 125, 133 (2×), 136 % of control
- T/C (dose: 200.0 mg/kg/injection, schedule: Q04DX003 (ip), vehicle: saline): 145 % of control
